For some assays here: For at least one compound, name, drawing or mass did not settle the structure. Some entries share one result that the patent states for a list of compounds. Some compounds share one range, which may span the group rather than tell each member.
Experiments:
Format in all cases: cell-based
[1] = system: Adipocytes (3T3-L1); experiment: Fatty acid oxidation (3H-palmitate) in 3T3-L1 adipocytes; conditions: leucine 0.5 mM, HMB 5 μM, resveratrol 200 nM; summary in Example 5
Protocol: High glucose medium reduced fatty acid oxidation by 46% (p<0.05).
Fatty acid oxidation was measured using ^3H-labeled palmitate oxidation, with the ^3H label trapped as water as a result of the fat oxidation. The ^3H was then measured via scintillation counter.

[2] = system: SIRT1; experiment: Sirt1 activity (fluorimetric kit), Example 5; conditions: leucine 0.5 mM, HMB 5 μM, resveratrol 200 nM; summary in Example 5
Protocol: Sirt1 Activity: SIRT1 activity was measured by using the SIRT1 Fluorimetric Drug Discovery Kit (BML-AK555, ENZO Life Sciences International, Inc. PA, USA). The assay measures SIRT1 activity by the degree of deacetylation of a standardized substrate containing an acetylated lysine side chain. The substrate utilized is a peptide containing […] of human […]]), an established target of SIRT1 activity; SIRT1 activity is directly proportional to the degree of deacetylation of […]. Samples were incubated with peptide substrate (25 μM), and NAD^+ (500 μM) in a phosphate-buffered saline solution at 37° C. on a horizontal shaker for 45 minutes. The reaction was stopped with the addition of 2 mM nicotinamide and a developing solution that binds to the deacetylated lysine to form a fluorophore.

[3] = system: c2c12 myotubes; experiment: Fatty acid oxidation (FAO) in c2c12 myotubes, Example 1; conditions: for increase in FAO: leucine 0-0.5 mM, KIC 0-0.5 mM, HMB 0-50 μM
Protocol: We have shown that catabolic systems are also stimulated to fuel this process, resulting in increased mitochondrial biogenesis and fatty acid oxidation (FAO). To address the mechanism of this effect, we first determined its mTOR-dependence by assessing leucine stimulation of FAO in the presence and absence of 20 nM rapamycin; although rapamycin inhibited FAO in c2c12 myotubes, the degree of leucine stimulation was preserved (˜50%, p<0.03; FIG. 1).
We next investigated the role of intact leucine (0-0.5 mM) vs. its metabolites, α-ketoisocaproic acid (KIC) (0-0.5 mM) and HMB (0-50 μM). […] Both leucine and HMB increased myotube mitochondrial biogenesis (assessed fluorometrically via NAO binding) by ˜50%, (p<0.005, FIG. 3).

| Structure (SMILES) | stimulation of fatty acid oxidation [1] | stimulation of Sirt1 activity [2] | increase in FAO [3] | effect on FAO ([3]; c2c12 myotubes, 20 nM rapamycin) |
| --- | --- | --- | --- | --- |
| CC(C)C[C@H](N)C(=O)O [leucine] | 30-50% | 30-50% | 60-70% | – |
| CC(C)CC(=O)C(=O)O [KIC, α-ketoisocaproic acid] | – | – | 60-70% | – |
| CO[C@H]1C[C@@H]2CC[C@@H](C)[C@@](O)(O2)C(=O)C(=O)N2CCCC[C@H]2C(=O)O[C@H]([C@H](C)C[C@@H]2CC[C@@H](O)[C@H](OC)C2)CC(=O)[C@H](C)/C=C(\C)[C@@H](O)[C@@H](OC)C(=O)[C@H](C)C[C@H](C)/C=C/C=C/C=C/1C [rapamycin, reference compound] | – | – | – | inhibited FAO |

From US8623924B2, “Compositions and methods for modulating metabolic pathways” (Nusirt Sciences, Inc., priority 2011, dated 2014)
